The supplement of paper PMC10849652
The list shows a part of the results.

Protein sequences, listed by entry. Tags and fused reporters are not part of them. Lines headed by an entry give the natural chain unless they say otherwise; changes in a name come on top.
UniProt Q53T59: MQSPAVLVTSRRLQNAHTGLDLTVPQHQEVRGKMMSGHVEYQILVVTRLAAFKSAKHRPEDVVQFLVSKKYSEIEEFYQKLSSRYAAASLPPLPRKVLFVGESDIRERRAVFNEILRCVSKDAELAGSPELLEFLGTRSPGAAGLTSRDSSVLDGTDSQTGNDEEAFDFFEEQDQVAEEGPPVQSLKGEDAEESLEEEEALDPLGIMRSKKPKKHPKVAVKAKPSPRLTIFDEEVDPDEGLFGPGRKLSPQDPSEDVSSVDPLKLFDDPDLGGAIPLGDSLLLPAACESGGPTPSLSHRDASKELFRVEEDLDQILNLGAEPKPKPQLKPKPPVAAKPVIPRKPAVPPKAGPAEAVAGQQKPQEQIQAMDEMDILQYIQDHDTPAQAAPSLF
UniProt P52789: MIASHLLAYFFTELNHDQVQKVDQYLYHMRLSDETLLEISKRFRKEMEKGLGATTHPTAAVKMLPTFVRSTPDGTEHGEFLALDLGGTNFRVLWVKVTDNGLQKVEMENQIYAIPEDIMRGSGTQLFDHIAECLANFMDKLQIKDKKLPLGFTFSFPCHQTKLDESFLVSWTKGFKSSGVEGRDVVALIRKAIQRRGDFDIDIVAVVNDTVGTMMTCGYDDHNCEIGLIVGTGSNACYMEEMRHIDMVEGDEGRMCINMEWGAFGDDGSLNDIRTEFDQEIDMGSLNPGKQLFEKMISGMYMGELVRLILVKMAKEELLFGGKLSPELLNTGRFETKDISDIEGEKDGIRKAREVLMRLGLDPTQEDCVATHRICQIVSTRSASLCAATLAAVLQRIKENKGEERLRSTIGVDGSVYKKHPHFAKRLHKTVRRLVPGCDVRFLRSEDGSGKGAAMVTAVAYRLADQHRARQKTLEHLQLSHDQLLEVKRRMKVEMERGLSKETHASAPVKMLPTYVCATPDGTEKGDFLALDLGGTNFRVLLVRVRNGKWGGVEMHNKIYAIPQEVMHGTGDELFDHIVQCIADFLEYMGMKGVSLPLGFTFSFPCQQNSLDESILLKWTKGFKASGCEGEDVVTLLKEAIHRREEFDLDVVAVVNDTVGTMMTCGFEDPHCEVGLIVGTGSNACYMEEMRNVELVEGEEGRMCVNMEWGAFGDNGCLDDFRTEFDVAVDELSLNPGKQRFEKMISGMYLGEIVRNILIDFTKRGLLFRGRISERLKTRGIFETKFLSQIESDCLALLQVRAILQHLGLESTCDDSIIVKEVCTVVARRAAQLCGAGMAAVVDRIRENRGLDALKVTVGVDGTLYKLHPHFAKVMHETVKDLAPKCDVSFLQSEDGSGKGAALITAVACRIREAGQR
UniProt P17482: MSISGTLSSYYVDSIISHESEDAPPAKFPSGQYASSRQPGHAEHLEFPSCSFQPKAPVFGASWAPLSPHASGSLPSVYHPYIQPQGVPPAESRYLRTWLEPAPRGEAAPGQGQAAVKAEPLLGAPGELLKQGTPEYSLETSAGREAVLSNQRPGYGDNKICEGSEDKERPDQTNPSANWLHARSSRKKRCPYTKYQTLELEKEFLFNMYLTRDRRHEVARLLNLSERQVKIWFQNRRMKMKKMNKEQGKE
UniProt Q9BW71: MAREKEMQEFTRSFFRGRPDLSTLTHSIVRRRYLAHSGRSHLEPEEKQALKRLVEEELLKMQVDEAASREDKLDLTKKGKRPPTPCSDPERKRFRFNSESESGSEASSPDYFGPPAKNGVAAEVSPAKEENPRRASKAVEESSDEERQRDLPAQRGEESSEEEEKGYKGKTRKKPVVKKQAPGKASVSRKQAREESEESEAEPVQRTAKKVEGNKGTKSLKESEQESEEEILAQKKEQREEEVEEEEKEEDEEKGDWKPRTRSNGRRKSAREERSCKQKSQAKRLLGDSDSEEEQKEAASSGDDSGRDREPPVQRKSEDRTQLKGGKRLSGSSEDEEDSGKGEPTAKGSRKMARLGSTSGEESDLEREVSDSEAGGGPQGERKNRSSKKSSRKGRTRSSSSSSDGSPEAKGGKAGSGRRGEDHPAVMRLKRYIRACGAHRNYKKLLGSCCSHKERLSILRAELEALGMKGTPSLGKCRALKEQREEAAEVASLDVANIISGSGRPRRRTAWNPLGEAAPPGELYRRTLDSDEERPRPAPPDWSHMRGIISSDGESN
UniProt P50747: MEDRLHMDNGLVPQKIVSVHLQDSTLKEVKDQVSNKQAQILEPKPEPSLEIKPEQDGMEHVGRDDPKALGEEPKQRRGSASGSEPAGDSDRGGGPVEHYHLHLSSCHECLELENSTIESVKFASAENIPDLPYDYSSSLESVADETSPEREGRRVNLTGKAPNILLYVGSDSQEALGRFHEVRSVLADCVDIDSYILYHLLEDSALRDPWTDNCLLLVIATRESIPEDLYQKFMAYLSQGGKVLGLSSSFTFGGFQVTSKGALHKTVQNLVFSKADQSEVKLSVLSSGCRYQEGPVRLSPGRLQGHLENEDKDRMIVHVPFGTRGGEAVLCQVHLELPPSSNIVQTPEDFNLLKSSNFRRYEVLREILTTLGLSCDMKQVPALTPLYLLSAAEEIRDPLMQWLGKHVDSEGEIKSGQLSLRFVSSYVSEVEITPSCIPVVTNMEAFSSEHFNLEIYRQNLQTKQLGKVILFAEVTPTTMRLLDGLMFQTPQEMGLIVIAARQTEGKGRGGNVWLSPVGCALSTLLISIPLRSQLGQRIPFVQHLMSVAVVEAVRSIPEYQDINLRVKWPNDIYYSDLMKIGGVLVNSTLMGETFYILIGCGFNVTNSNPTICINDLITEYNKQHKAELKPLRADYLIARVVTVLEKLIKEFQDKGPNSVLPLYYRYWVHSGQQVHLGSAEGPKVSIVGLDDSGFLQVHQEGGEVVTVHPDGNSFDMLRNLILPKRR
UniProt Q99714: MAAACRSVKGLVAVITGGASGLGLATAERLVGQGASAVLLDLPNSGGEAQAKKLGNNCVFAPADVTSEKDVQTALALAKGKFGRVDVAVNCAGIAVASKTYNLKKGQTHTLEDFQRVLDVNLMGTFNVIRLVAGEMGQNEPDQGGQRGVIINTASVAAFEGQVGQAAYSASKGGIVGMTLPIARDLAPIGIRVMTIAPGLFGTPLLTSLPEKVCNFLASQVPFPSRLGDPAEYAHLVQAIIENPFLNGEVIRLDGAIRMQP
UniProt Q6YN16: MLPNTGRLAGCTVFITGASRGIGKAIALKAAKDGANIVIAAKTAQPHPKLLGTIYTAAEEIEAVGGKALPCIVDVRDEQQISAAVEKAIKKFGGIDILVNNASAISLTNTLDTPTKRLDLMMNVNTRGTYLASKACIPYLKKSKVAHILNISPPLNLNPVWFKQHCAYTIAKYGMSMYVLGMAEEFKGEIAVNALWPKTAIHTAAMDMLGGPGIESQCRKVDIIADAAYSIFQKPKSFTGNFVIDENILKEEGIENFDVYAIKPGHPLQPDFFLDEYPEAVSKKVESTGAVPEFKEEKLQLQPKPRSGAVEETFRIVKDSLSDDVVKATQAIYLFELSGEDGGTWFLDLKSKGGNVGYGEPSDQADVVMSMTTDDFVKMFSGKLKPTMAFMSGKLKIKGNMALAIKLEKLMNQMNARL
UniProt P05362: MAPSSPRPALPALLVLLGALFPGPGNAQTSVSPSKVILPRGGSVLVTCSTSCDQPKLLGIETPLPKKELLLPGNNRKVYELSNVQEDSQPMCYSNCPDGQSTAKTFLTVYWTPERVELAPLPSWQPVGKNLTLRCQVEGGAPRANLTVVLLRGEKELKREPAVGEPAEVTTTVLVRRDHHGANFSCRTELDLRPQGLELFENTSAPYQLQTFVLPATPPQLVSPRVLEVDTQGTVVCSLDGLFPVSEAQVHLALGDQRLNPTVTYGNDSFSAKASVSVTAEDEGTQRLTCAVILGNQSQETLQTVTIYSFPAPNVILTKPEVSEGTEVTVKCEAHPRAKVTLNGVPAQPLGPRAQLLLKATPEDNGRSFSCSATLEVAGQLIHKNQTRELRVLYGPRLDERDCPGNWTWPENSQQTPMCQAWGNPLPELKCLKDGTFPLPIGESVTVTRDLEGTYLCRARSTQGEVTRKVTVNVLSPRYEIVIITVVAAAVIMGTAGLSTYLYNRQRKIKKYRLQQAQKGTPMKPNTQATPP
UniProt P48723: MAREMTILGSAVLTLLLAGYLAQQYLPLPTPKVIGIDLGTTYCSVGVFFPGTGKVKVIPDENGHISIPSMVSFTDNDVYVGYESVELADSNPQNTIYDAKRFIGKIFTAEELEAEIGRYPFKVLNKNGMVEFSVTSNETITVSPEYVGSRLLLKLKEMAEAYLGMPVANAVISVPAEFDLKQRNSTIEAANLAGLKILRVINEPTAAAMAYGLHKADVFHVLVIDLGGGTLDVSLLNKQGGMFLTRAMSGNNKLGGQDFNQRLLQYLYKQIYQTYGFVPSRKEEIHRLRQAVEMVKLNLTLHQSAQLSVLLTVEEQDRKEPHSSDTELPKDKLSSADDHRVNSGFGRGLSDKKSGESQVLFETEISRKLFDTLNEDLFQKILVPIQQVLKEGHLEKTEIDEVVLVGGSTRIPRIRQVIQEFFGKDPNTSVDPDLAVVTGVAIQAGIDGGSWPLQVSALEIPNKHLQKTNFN
UniProt O60921: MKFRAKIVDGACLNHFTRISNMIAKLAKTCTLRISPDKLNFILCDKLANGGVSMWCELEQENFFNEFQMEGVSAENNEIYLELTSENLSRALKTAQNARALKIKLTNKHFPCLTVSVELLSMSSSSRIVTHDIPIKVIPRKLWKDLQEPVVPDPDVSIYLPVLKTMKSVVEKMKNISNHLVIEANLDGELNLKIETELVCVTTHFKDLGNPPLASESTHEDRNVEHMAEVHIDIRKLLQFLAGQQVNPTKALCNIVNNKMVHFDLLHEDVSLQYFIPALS
UniProt O43719: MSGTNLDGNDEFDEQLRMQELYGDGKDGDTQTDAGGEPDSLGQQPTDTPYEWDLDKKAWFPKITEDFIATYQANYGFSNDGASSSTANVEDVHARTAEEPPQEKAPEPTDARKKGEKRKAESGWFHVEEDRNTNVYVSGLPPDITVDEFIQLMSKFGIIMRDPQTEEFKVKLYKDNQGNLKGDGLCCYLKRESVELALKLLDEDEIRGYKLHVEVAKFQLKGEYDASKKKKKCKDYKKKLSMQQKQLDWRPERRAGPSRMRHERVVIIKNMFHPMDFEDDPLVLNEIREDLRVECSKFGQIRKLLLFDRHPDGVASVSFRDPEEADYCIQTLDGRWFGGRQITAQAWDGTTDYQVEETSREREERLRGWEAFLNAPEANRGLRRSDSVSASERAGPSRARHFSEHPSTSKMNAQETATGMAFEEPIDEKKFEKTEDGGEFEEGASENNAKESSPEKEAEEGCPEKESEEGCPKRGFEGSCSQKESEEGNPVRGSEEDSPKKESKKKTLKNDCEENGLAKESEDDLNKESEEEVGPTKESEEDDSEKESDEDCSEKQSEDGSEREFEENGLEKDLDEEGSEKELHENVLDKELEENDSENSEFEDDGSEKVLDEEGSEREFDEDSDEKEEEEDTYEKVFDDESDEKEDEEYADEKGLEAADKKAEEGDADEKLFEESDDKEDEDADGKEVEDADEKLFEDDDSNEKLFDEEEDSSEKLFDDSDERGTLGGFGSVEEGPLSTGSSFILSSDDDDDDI
UniProt Q14103: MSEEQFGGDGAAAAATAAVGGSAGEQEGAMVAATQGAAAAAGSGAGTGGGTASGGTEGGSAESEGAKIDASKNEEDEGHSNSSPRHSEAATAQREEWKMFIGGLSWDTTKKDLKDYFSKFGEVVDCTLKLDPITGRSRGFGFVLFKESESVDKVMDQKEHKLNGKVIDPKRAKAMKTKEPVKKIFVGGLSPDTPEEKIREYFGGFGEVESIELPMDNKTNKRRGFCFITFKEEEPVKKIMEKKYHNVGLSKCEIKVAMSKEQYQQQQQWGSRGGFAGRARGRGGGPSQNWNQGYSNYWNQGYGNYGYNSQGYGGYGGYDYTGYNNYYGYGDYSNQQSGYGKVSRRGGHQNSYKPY
UniProt P07910: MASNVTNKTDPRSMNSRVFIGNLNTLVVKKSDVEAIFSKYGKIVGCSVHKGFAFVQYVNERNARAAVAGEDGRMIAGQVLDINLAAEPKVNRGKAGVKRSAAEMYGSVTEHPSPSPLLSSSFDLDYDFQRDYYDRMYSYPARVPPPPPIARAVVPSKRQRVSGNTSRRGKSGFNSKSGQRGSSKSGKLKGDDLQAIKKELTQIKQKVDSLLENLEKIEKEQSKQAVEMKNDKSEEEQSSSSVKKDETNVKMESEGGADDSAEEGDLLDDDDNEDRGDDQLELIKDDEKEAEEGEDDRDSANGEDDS
UniProt P22626: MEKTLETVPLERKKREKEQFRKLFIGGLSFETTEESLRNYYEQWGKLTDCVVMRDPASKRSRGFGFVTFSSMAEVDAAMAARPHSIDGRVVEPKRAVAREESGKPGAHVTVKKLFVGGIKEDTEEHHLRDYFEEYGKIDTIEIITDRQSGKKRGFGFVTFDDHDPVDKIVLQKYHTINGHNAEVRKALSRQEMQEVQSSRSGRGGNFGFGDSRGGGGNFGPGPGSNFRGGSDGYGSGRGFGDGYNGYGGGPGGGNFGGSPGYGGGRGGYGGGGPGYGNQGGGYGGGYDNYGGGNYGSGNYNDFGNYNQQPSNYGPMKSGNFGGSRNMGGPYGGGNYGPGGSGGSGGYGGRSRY

Experiments:
Assay in all cases: log2 fold change, soluble protein after heating vs DMSO (PISA); higher = thermal stabilisation; K562 cells, 10 uM, 30 min; active = over 0.2 and 3.5 SD of the protein, either way, in both replicates (recomputed)
erlotinib = compound: C#Cc1cccc(Nc2ncnc3cc(OCCOC)c(OCCOC)cc23)c1 [erlotinib]
How it was run: (§1)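 Soluble protein was defined as the supernatant after 21,000xg for 90 min. It came from K562 cells at 2×10^6 cells/mL given 10 μM compound for 30 min, heated in aliquots for 3 min across 48°C-58°C, pooled, and extracted in PBS with 0.5% NP-40 at 4°C, and was quantified by TMTpro 16plex LC-MS/MS with equalised channel sums. Thermal stability against control samples, from duplicates, is reported as log2 fold change.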

[1] = compound: C/C(=N\NC(=O)C1=CC(=CC=C1)S(=O)(=O)N2CCOCC2)/C3=C(C=CC(=C3)Cl)O
How it was run: as §1

[2] = compound: C1=CC(=C(C=C1Cl)C2=NC3=NC=CN=C3C(=N2)NC4=CC=NC=C4)F
How it was run: as §1

[3] = compound: C1=CC(=CC=C1C2=NC3=C(N2)C=C(C=C3)C(=O)N)OC4=CC=C(C=C4)Cl
How it was run: as §1

[4] = compound: C1=CC2=C(C=CC(=C2)/C=C\3/C(=O)NC(=NCC4=CC=CS4)S3)N=C1
How it was run: as §1

[5] = compound: C1=CC2=NC=CN=C2C=C1/C=C/3\C(=O)NC(=O)S3
How it was run: as §1

[6] = compound: C1=CC=C(C=C1)C2=NC(=C(N2)C3=CC=NC=C3)C4=CC(=C(C=C4)Cl)O
How it was run: as §1

[7] = compound: C1=CC=C2C(=C1)C3=NNC4=CC=CC(=C43)C2=O
How it was run: as §1

[8] = compound: C1CCN(C1)C(=O)NC2=CC=CC(=C2)NC3=NC=C(C(=N3)NCCC4=CN=CN4)Br
How it was run: as §1

[9] = compound: C1CN(CCC1(CC2=CC=C(C=C2)Cl)N)C3=NC=NC4=C3C=CN4
How it was run: as §1

| Target | log2 fold change (erlotinib) | log2 fold change [1] | log2 fold change [2] | log2 fold change [3] | log2 fold change [4] | log2 fold change [5] | log2 fold change [6] | log2 fold change [7] | log2 fold change [8] | log2 fold change [9] |
| --- | --- | --- | --- | --- | --- | --- | --- | --- | --- | --- |
| HIBADH (UniProt P31937) | inactive: -0.038 | inactive: 0.05 | inactive: -0.034 | inactive: 0.016 | inactive: 0.006 | inactive: 0.013 | inactive: 0.03 | inactive: -0.011 | inactive: -0.023 | inactive: 0.042 |
| ICAM2 (UniProt P13598) | inactive: -0.043 | inactive: 0.052 | inactive: -0.01 | inactive: 0.016 | inactive: 0.009 | inactive: 0.015 | inactive: 0.07 | inactive: -0.095 | inactive: -0.127 | inactive: -0.019 |
| HS1BP3 (UniProt Q53T59) | inactive: 0.008 | inactive: 0.042 | inactive: 0 | inactive: -0.073 | inactive: 0.147 | inactive: -0.008 | inactive: -0.032 | inactive: -0.03 | – | – |
| HK2 (UniProt P52789) | inactive: -0.068 | inactive: 0.037 | inactive: 0.051 | inactive: 0 | inactive: 0.028 | inactive: -0.015 | inactive: 0.005 | inactive: -0.017 | inactive: 0.009 | inactive: 0.023 |
| HNRNPUL1 (UniProt Q9BUJ2) | inactive: 0.022 | inactive: -0.009 | inactive: 0.018 | inactive: -0.012 | inactive: 0.001 | inactive: -0.01 | inactive: 0.004 | inactive: 0.014 | inactive: 0.029 | inactive: -0.048 |
| HOXB9 (UniProt P17482) | inactive: 0.181 | inactive: -0.163 | inactive: -0.002 | inactive: -0.039 | inactive: 0.128 | inactive: 0.013 | inactive: -0.01 | inactive: 0.021 | inactive: 0.036 | inactive: -0.035 |
| HMGB1 (UniProt P09429) | inactive: 0.006 | inactive: -0.044 | inactive: 0.074 | inactive: 0.054 | inactive: -0.209 | inactive: -0.011 | inactive: 0.052 | inactive: 0.116 | inactive: -0.024 | inactive: -0.007 |
| HGS (UniProt O14964) | inactive: -0.031 | inactive: 0.041 | inactive: 0.046 | inactive: -0.014 | inactive: 0.014 | inactive: 0.02 | inactive: 0.002 | inactive: -0.009 | inactive: 0.01 | inactive: -0.015 |
| HIRIP3 (UniProt Q9BW71) | inactive: 0.065 | inactive: -0.023 | inactive: 0.055 | inactive: 0 | inactive: 0.022 | inactive: -0.031 | inactive: -0.023 | inactive: 0.032 | inactive: -0.02 | inactive: 0.006 |
| HSPH1 (UniProt Q92598) | inactive: 0.009 | inactive: 0.05 | inactive: 0.038 | inactive: -0.032 | inactive: -0.037 | inactive: -0.006 | inactive: 0.045 | inactive: 0.006 | inactive: -0.002 | inactive: -0.027 |
| HMCES (UniProt Q96FZ2) | inactive: 0.077 | inactive: 0.07 | inactive: 0.076 | inactive: -0.171 | inactive: 0.171 | inactive: -0.024 | inactive: -0.051 | inactive: -0.034 | inactive: 0.062 | inactive: -0.032 |
| HLCS (UniProt P50747) | inactive: -0.008 | inactive: 0.079 | inactive: 0.024 | inactive: 0.004 | inactive: 0.008 | inactive: 0.015 | inactive: -0.023 | inactive: 0 | inactive: -0.049 | inactive: 0.016 |
| HIP1 (UniProt O00291) | inactive: 0.018 | inactive: 0.033 | inactive: 0.046 | inactive: -0.004 | inactive: 0.018 | inactive: -0.056 | inactive: 0.011 | inactive: -0.166 | inactive: -0.209 | inactive: 0.09 |
| HSD17B10 (UniProt Q99714) | inactive: -0.02 | inactive: 0.067 | inactive: 0.114 | inactive: 0.023 | inactive: -0.041 | inactive: -0.003 | inactive: 0.071 | inactive: 0.036 | inactive: -0.054 | inactive: 0.064 |
| ICAM5 (UniProt Q9UMF0) | inactive: 0.087 | inactive: 0.046 | inactive: -0.043 | inactive: -0.079 | inactive: 0.279 | inactive: -0.133 | inactive: -0.1 | inactive: 0.122 | inactive: -0.091 | inactive: 0.188 |
| HINT3 (UniProt Q9NQE9) | inactive: 0.125 | inactive: 0.009 | inactive: 0.028 | inactive: -0.023 | inactive: -0.04 | inactive: 0.038 | inactive: -0.032 | inactive: 0.011 | inactive: -0.029 | inactive: 0.012 |
| HSDL2 (UniProt Q6YN16) | inactive: 0.048 | inactive: 0.042 | inactive: 0.118 | inactive: -0.05 | inactive: 0.025 | inactive: 0.025 | inactive: 0.047 | inactive: 0.014 | inactive: -0.032 | inactive: 0.054 |
| ICAM1 (UniProt P05362) | inactive: 0.008 | inactive: 0.008 | inactive: 0.015 | inactive: 0.018 | inactive: -0.005 | inactive: -0.033 | inactive: -0.01 | inactive: -0.004 | inactive: -0.047 | inactive: 0.073 |
| HSD17B4 (UniProt P51659) | inactive: -0.025 | inactive: 0.051 | inactive: 0.041 | inactive: 0.059 | inactive: 0.024 | inactive: 0.01 | inactive: -0.052 | inactive: -0.014 | inactive: -0.011 | inactive: -0.013 |
| HMG20A (UniProt Q9NP66) | inactive: -0.005 | inactive: 0.125 | inactive: -0.09 | inactive: 0.017 | inactive: -0.281 | inactive: -0.009 | active: 0.429 | inactive: 0.001 | inactive: -0.013 | inactive: 0.006 |
| HSPA13 (UniProt P48723) | inactive: -0.007 | inactive: 0.035 | inactive: 0.012 | inactive: 0.007 | inactive: -0.033 | inactive: 0.034 | inactive: -0.052 | inactive: 0.025 | inactive: -0.01 | inactive: 0.039 |
| HUS1 (UniProt O60921) | inactive: 0.029 | inactive: 0.023 | inactive: 0.09 | inactive: 0.018 | inactive: -0.004 | inactive: -0.023 | inactive: 0 | inactive: -0.043 | inactive: -0.003 | inactive: 0.027 |
| HTATSF1 (UniProt O43719) | inactive: 0.07 | inactive: 0.109 | inactive: 0.016 | inactive: -0.042 | inactive: 0.144 | inactive: 0.043 | inactive: -0.043 | inactive: -0.003 | inactive: -0.06 | inactive: -0.037 |
| HNRNPD isoform 4 (UniProt Q14103) | inactive: -0.048 | inactive: -0.192 | inactive: -0.295 | inactive: -0.013 | inactive: -0.02 | inactive: 0.037 | inactive: 0.281 | inactive: -0.031 | inactive: -0.02 | inactive: -0.043 |
| HNRNPC isoform 2 (UniProt P07910) | inactive: 0.093 | inactive: -0.349 | inactive: -0.682 | inactive: 0.204 | inactive: 0.025 | inactive: 0.188 | inactive: -0.172 | inactive: -0.164 | inactive: 0.087 | inactive: -0.385 |
| HNRNPA2B1 (UniProt P22626) | inactive: -0.134 | inactive: -0.116 | inactive: -0.532 | inactive: 0.015 | inactive: -0.109 | inactive: 0.087 | inactive: -0.089 | inactive: -0.015 | inactive: 0.09 | inactive: -0.092 |
| HNRNPL (UniProt P14866) | inactive: 0.086 | inactive: -0.044 | inactive: -0.217 | inactive: 0.171 | inactive: -0.103 | inactive: 0.115 | inactive: -0.001 | inactive: -0.034 | inactive: 0.072 | inactive: -0.177 |
| HPRT1 (UniProt P00492) | inactive: -0.003 | inactive: 0.016 | inactive: 0.057 | inactive: 0.07 | inactive: -0.057 | inactive: 0.037 | inactive: 0.022 | inactive: -0.037 | inactive: 0.021 | inactive: 0.076 |
| IDE (UniProt P14735) | inactive: -0.021 | inactive: 0.055 | inactive: 0.021 | inactive: 0.023 | inactive: 0.046 | inactive: 0.003 | inactive: 0.036 | inactive: -0.004 | inactive: -0.027 | inactive: 0.04 |
| HIST2H2BF isoform 2 (UniProt Q5QNW6) | inactive: 0.013 | inactive: -0.161 | inactive: -0.433 | inactive: 0.046 | inactive: 0.048 | inactive: 0.223 | inactive: -0.057 | inactive: -0.083 | inactive: 0.191 | inactive: -0.373 |

Full records from above. Values in the order: log2 fold change (erlotinib) | log2 fold change [1] | log2 fold change [2] | log2 fold change [3] | log2 fold change [4] | log2 fold change [5] | log2 fold change [6] | log2 fold change [7] | log2 fold change [8] | log2 fold change [9]
ICAM1 (UniProt P05362) in the list: inactive: 0.008 | inactive: 0.008 | inactive: 0.015 | inactive: 0.018 | inactive: -0.005 | inactive: -0.033 | inactive: -0.01 | inactive: -0.004 | inactive: -0.047 | inactive: 0.073
HLCS (UniProt P50747) in the list: inactive: -0.008 | inactive: 0.079 | inactive: 0.024 | inactive: 0.004 | inactive: 0.008 | inactive: 0.015 | inactive: -0.023 | inactive: 0 | inactive: -0.049 | inactive: 0.016
